From paper PMC6137200

Target: DOPEY2-GFP (human)
Experiment: co-IP; GFP nanotrap beads (Chromotek) on lysates of HEK293T cells transiently transfected (PEI, 48 h); co-precipitated proteins detected by immunoblot (Licor Odyssey)

binding: binds
B1: ATP9A-HA (protein, UniProt O75110 1-1047)
chain: MTDNIPLQPVRQKKRMDSRPRAGCCEWLRCCGGGEARPRTVWLGHPEKRDQRYPRNVINNQKYNFFTFLPGVLFNQFKYFFNLYFLLLACSQFVPEMRLGALYTYWVPLGFVLAVTVIREAVEEIRCYVRDKEVNSQVYSRLTARGTVKVKSSNIQVGDLIIVEKNQRVPADMIFLRTSEKNGSCFLRTDQLDGETDWKLRLPVACTQRLPTAADLLQIRSYVYAEEPNIDIHNFVGTFTREDSDPPISESLSIENTLWAGTVVASGTVVGVVLYTGRELRSVMNTSNPRSKIGLFDLEVNCLTKILFGALVVVSLVMVALQHFAGRWYLQIIRFLLLFSNIIPISLRVNLDMGKIVYSWVIRRDSKIPGTVVRSSTIPEQLGRISYLLTDKTGTLTQNEMIFKRLHLGTVAYGLDSMDEVQSHIFSIYTQQSQDPPAQKGPTLTTKVRRTMSSRVHEAVKAIALCHNVTPVYESNGVTDQAEAEKQYEDSCRVYQASSPDEVALVQWTESVGLTLVGRDQSSMQLRTPGDQILNFTILQIFPFTYESKRMGIIVRDESTGEITFYMKGADVVMAGIVQYNDWLEEECGNMAREGLRVLVVAKKSLAEEQYQDFEARYVQAKLSVHDRSLKVATVIESLEMEMELLCLTGVEDQLQADVRPTLETLRNAGIKVWMLTGDKLETATCTAKNAHLVTRNQDIHVFRLVTNRGEAHLELNAFRRKHDCALVISGDSLEVCLKYYEYEFMELACQCPAVVCCRCAPTQKAQIVRLLQERTGKLTCAVGDGGNDVSMIQESDCGVGVEGKEGKQASLAADFSITQFKHLGRLLMVHGRNSYKRSAALSQFVIHRSLCISTMQAVFSSVFYFASVPLYQGFLIIGYSTIYTMFPVFSLVLDKDVKSEVAMLYPELYKDLLKGRPLSYKTFLIWVLISIYQGSTIMYGALLLFESEFVHIVAISFTSLILTELLMVALTIQTWHWLMTVAELLSLACYIASLVFLHEFIDVYFIATLSFLWKVSVITLVSCLPLYVLKYLRRRFSPPSYSKLTS

Results are given in words; binding and its absence hold for the method and conditions named. In cells and extracts the contact can be indirect. Binding calls can cover weak binding; strength is not graded here. Tags and fused reporters may be left off the sequences shown.
